{"source": "paper PMC10602929", "target": "T1, MST2, yeast two-hybrid fusion (UniProt Q13188)", "T1 sequence": "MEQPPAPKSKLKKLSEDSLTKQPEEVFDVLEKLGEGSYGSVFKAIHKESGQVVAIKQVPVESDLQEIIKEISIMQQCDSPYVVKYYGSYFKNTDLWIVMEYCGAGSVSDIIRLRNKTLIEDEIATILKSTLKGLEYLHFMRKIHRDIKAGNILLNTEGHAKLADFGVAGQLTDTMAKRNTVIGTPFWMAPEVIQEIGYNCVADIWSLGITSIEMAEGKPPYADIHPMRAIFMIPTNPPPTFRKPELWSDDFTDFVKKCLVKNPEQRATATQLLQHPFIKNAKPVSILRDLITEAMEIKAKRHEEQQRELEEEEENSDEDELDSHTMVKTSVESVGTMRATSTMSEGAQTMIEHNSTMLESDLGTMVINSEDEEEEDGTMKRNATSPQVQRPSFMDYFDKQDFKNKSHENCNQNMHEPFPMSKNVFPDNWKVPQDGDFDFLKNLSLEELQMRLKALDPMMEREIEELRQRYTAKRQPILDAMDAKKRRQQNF", "test": "two-hybrid; GAL4-DBD fusions in yeast Y187 mated with GAL4-AD fusions in AH109; diploids on TDO plus 1 mM 3-AT and on QDO medium, 30°C, 3 days; both orientations", "note": "No constants are given. Whether binding was seen depends on the method and setting. A result given as binding can be weak or reduced; the word gives no strength. Where a sequence is shown, tags or fusion partners need not be part of it.", "data": [{"substance": "TRIM69B, yeast two-hybrid fusion", "values": [{"measurement": "binding", "result": "binds weakly"}]}]}
